This data set relates to Caenorhabditis elegans (C. elegans, N2 strain). The note with it: L4-stage worms, 24 h at 20 °C, K-M buffer, Probit analysis.

The structures appear in SMILES notation.

In turn, `CN1[C@@H]2CC[C@H]1C[C@@H](OC(=O)C(CO)c1ccccc1)C2` (stereo partly shown) [Atropine] had an LD50 of 21.5 to 46.4 mg/mL.

(Values after paper PMC12524297 (International Journal of Molecular Sciences, 2025).)
